# Test results published in publication PMC3431373.
# Protein sequences, listed by entry. Tags and fused reporters are not part of them. Lines headed by an entry give the natural chain unless they say otherwise; changes in a name come on top.
# UniProt P41235: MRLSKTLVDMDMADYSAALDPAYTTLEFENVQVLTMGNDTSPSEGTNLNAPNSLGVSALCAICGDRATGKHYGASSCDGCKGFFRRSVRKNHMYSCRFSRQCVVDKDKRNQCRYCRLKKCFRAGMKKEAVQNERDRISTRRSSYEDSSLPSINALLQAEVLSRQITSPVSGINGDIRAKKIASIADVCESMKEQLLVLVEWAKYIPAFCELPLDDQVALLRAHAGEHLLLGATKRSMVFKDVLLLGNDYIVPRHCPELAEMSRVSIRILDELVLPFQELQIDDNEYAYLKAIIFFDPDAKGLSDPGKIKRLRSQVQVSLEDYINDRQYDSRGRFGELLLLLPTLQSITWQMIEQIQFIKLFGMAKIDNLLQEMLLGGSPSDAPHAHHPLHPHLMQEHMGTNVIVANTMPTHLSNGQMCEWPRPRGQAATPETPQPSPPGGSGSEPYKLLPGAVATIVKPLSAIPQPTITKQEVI
# Results are given in words; binding and its absence hold for the method and conditions named. A result given as binding can be weak or reduced; the word gives no strength.
# B1: MED25 407–744 region (mouse, AAH21333), two-hybrid prey clone (domain or fragment, UniProt Q8VCB2 407-744)
# chain: EWQEKPKPASVDANTKLTRSLPCQVYVNHGENLKTEQWPQKLIMQLIPQQLLTTLGPLFRNSRMVQFHFTNKDLESLKGLYRIMGNGFAGCVHFPHTAPCEVRVLMLLYSSKKKIFMGLIPYDQSGFVNGIRQVITNHKQVQQQKLEQQRGMGAQQAPPVLGPILEEQARPPQNLLQLRAPQPQPQGAVGASAATGQPQPQGATQAPTGAPQGPPGAAPGPPPSGPILRPQNPGANPQLRSLLLNPAPPQTGVPPPQASLHHLQPPGAPTLLPPHQSMGQPQLGPQLLHPPPAQSWPTQLPQRAPLPGQMLLSGGPRGPVPQPGLQPSVMEDDILMDL
# Molecular target: HNF4α-ligand binding domain (LBD) (142–368), Gal4BD bait (human) (UniProt P41235)
# Test: two-hybrid; Gal4BD-HNF4α-LBD (142–368) as bait, mouse pancreatic library (Clontech) as prey, S. cerevisiae AH109; growth on Trp−/Leu−/His−/3 mM 3-AT plates and lacZ assays; positive hits retested one to one
binder,measurement,value
B1,binding,binds
